PubChem BioAssay AID588827 (Broad Institute, 2011)
The whole screen tested about 2,400 compounds, of which about 20 (0.8%) were called active. The shares of active, inactive and inconclusive entries below differ from those in the screen.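 How the source made its calls: active means fitted half-maximal concentration for signal decrease at or below twice the top tested dose, in every repeat run; inconclusive means repeat runs disagree, or flat partial inhibition, or poor fit; inactive means all runs flat, wrong-direction or potency beyond limit.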

Assay: GFP reporter loss versus dox-driven RFP – NIH3T3 R4 cells, cherry-pick, set 4, dose response (AID 588827);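 further: 0% = neutral control wells and -100% = didemnin B at 400 nM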
Conditions: NIH3T3 R4 HSF-1 GFP reporter, heat shock, 48 h; at 19.5 µM (top of the series) unless noted

Row | SMILES | activity change, negative = inhibition
1 | Cc1cc(/C=C2/C(=O)NN(c3ccccc3)C2=O)c(C)n1-c1ccc(O)cc1 | inactive: -1.39%
2 | O=C(Nc1nnc(S(=O)(=O)N2CCCCCC2)s1)c1ccccc1Cl | inconclusive: -45%
3 | CCN(Cc1cc(=O)oc2cc(C)ccc12)c1ccccc1 | inconclusive: -34.9%
4 | CC(C)c1ccc(-c2nc3ccccc3s2)cc1 | inactive: -15.1%
5 | CN(C(=O)c1ccc2c(c1)SC1=NS(=O)(=O)CCN12)C(c1ccccc1)c1ccccc1 | inactive: 4.39% [at 10 µM]
6 | CC(=O)N(c1ccc2oc(=O)sc2c1)S(=O)(=O)c1ccc(C(=O)O)cc1 | inactive: -1.71%
7 | C/C(=N\NC1=NCCN1)c1ccc(N)c([N+](=O)[O-])c1 | inactive: -5.31%
8 | CCN(CC)c1nc2c(c(=O)[nH]c(=O)n2C)n1CCOc1ccccc1 | inconclusive: -8.08%
9 | CCn1c(S(=O)(=O)O)nc2ccccc21 | inconclusive: 8.43%
10 | Cc1sc2ncnc(NCCc3ccc(S(N)(=O)=O)cc3)c2c1C | inconclusive: -96.6%
11 | CCOC(=O)C1(Cc2ccc(OC)cc2)CCN(C(=O)c2csc(C)n2)CC1 | inactive: -3.83%
12 | COc1ccc(S(=O)(=O)/C(C#N)=C/Nc2cccc(OC)c2)cc1 | inactive: -13.2%
13 | COc1ccccc1N(C)S(=O)(=O)c1ccc(C(=O)NC(C)c2ccccc2)cc1 (configuration not stated) | inconclusive: -8.15%
14 | CC(=O)N/C(=N\c1nc(C)cc(C)n1)Nc1ccc2ccccc2c1 | inactive: -10.8%
15 | COc1ccc(OCc2cccc(C(=O)Nn3cc([N+](=O)[O-])cn3)c2)cc1 | inconclusive: -75.7%
16 | CC(C)(C)C1CCc2c(sc(NC(=O)CSc3ncn[nH]3)c2C#N)C1 (configuration not stated) | inconclusive: -38.5%
17 | COc1ccc(C)cc1NS(=O)(=O)c1ccc(-c2cnc(C3CC3)o2)cc1 | inconclusive: -45%
18 | O=C1C(Cc2ccccc2)Nc2ncnc(N3CCN(c4ccccc4)CC3)c2N1Cc1ccccc1 (configuration not stated) | inactive: -9.33%
19 | Cn1c(=O)c2c(SCC(=O)N3CCCc4ccccc43)nc(C3CC3)nc2n(C)c1=O | inactive: -16.5%
20 | CC1CCCCN1CC(=O)Nc1ccccc1Sc1ccccc1 (configuration not stated) | inconclusive: -51.6%
21 | CN=c1scc(-c2cccs2)n1/N=C/c1ccccc1O | inconclusive: -9.84%
22 | CC1CN(C(=O)Nc2ccc3c(c2)OCCO3)CC(C)O1 (configuration not stated) | inconclusive: -3.22% [at 10 µM]
23 | CCN1CCN(/C=N/c2nc3c(s2)CCCC3)CC1 | inactive: -11.3%

Row | SMILES | activity change, negative = inhibition
24 | COc1cccc(-n2nc(-c3ccnn3-c3cccc(Cl)c3)c(=O)n(C)c2=O)c1 | inactive: -21.5%
25 | CC1(C)CC(=O)c2cc(OCC(=O)N3CCN(c4ccccc4F)CC3)ccc2O1 | inconclusive: -8.73%
26 | Cc1ccc2oc(/N=C(\N)NC(=O)C(C)(C)C)nc2c1 | inconclusive: -24.1%
27 | Cc1ccc2nc(-c3sc4nc(C)cc(C)c4c3N)[nH]c2c1 | inconclusive: 37.9%
28 | Cc1cccc(Nc2ccncc2S(=O)(=O)NC(=O)NC(C)C)c1 | inconclusive: -10.8%
29 | COc1ccc(/C=C/C(=O)Oc2ccc(/C=N/NC(=O)COc3c(C)cccc3C)cc2)cc1 | inactive: -5.78%
30 | O=C(Oc1oc(-c2ccco2)nc1C=Nc1ccccc1)c1ccoc1 | inconclusive: 27.6%
31 | O=C(OCn1ncc(Cl)c(Cl)c1=O)c1ccccc1Cl | inconclusive: 41.4%
32 | CC1=Nc2ccc(C)c3nc(C)cc(c23)N1c1ccc(C)cc1 | inactive: -23.6%
33 | COc1ccc(O)c(-c2c(-c3ccc(Cl)cc3)n[nH]c2C)c1 | inactive: -9.04%
34 | COc1ccc(C(=O)C2CCCN(S(=O)(=O)c3ccccc3F)C2)c(C)c1 (configuration not stated) | inactive: -19.3%
35 | CC1(C)Cc2ccccc2-c2n[nH]c(=S)n21 | inconclusive: -13.5%
36 | COc1ccc(-c2noc(CCC(=O)Nc3ccc(C)c(C)c3)n2)cc1 | inconclusive: -29.6%
37 | O=c1c2ccc(Cl)cc2nc(-c2cccc(C(F)(F)F)c2)n1O | inconclusive: -53.5%
38 | CCOc1ccc(-c2cnc(NCc3cccc4ccccc34)n2CCOC)cc1 | inconclusive: 10.1%
39 | COc1nn(-c2ccccc2)c(=O)c(Cl)c1Cl | inconclusive: 36% [at 10 µM]
40 | O=C(Cn1nc2ccccc2n1)N/N=C/c1cc([N+](=O)[O-])ccc1O | inactive: 6%
41 | COc1cccc(-c2nnc3n2N=C(C(C)(C)C)CS3)c1 | inconclusive: -74.3%
42 | CCOc1ccc2c(c1)[N+](C)(C)C(C)(C)C=C2C | inconclusive: -31.5%
43 | CCOC(=O)N=Nc1c2ccccc2c2nc3no[nH]c3nc12 | inconclusive: -62%
44 | COc1nc(-c2ccccc2)c2cc(Br)ccc2n1 | inconclusive: -15.5%
45 | O=C(CCl)N1N=C(c2cccs2)CC1c1ccco1 (configuration not stated) | inconclusive: 13.2%
46 | O=C(OCCCN1CCOCC1)c1ccc(O)c(O)c1 | inconclusive: -25%

Row | SMILES | activity change, negative = inhibition
47 | C=CCn1c(C)cc(C(=O)CSc2nnc(NC(C)C)s2)c1C | inactive: -14.3%
48 | C/C(=N\Nc1nncc2ccccc12)c1ccc(Cl)c([N+](=O)[O-])c1 | inactive: 4.2%
49 | COc1ccc(C(=O)Oc2ccc(/C=N/O)cc2)cc1 | inconclusive: -6.71%
50 | O=c1c(Cl)c(Cl)cnn1-c1ccccc1 | inconclusive: -75.6%
51 | COc1ccc(OC)c2c1C(=O)C(Cl)=C(Cl)C2=O | inconclusive: -28.3%
52 | C=CCNc1nnnc2c1sc1nc(N3CCOCC3)c3c(c12)CCCC3 | inconclusive: 17%
53 | CCCNC(=O)c1ccc(COc2ccc(CCC)cc2OC)o1 | inconclusive: -21.2%
54 | Cc1c(C)c2ccc(OCC(=O)Nc3ccccn3)c(C)c2oc1=O | inconclusive: 26.2%
55 | Cc1nc([N+](=O)[O-])cn1-c1ccc(N)cc1 | inconclusive: -10.3%
56 | COc1ccc2[nH]c3c(=O)n(CCCN4CCOCC4)cnc3c2c1 | inactive: -12.4%
57 | Oc1ccccc1CNc1ccc(OC(F)(F)F)cc1 | inactive: -21.3%
58 | CCCOc1ccc2cc(C(=O)NCc3ccccc3)c(=O)oc2c1 | inconclusive: 9.7%
59 | CN=c1scc(-c2ccco2)n1/N=C/c1ccc(O)c(O)c1 | inconclusive: -35.8%
60 | N#Cc1cccc(C#N)c1Oc1ccc(S(=O)(=O)Nc2ccc(Cl)cc2)cc1 | inconclusive: -50.3%
61 | CCCCNc1nc2cccnc2s1 | inconclusive: -13.2%
62 | COc1ccc(OC)c(C(=O)c2ccc(C(=O)O)cc2)c1 | inconclusive: 2.81%
63 | COc1cccc(CN(C)CC(=O)Nc2cccc(C(F)(F)F)c2)c1OC | inconclusive: -48.2%
64 | CCO/C(C)=C1/SC(=S)NC1=O | inactive: 3.62%
65 | Cc1ccc(-c2cn(-c3ccccc3)c(=S)[nH]2)cc1C | inactive: -10%
66 | CCC(=O)Nc1cc2nn(-c3ccc(C)cc3)nc2cc1C | inactive: -26.2%
67 | CC(C)Sc1nc2sccc2c(=O)n1-c1ccccc1 | inconclusive: 11.3%
68 | CC(=O)c1ccc(OCC(O)CN2CCN(Cc3ccc4c(c3)OCO4)CC2)cc1 (configuration not stated) | inconclusive: 12.1%
69 | Cc1sc2ncnc(N3CCC(C(=O)Nc4nc(-c5cccs5)cs4)CC3)c2c1C | inconclusive: -39.4%

In the list so far, these have a nitro group on carbon.
Row | SMILES | activity change, negative = inhibition
7 | C/C(=N\NC1=NCCN1)c1ccc(N)c([N+](=O)[O-])c1 | inactive: -5.31%
15 | COc1ccc(OCc2cccc(C(=O)Nn3cc([N+](=O)[O-])cn3)c2)cc1 | inconclusive: -75.7%
40 | O=C(Cn1nc2ccccc2n1)N/N=C/c1cc([N+](=O)[O-])ccc1O | inactive: 6%
48 | C/C(=N\Nc1nncc2ccccc12)c1ccc(Cl)c([N+](=O)[O-])c1 | inactive: 4.2%
55 | Cc1nc([N+](=O)[O-])cn1-c1ccc(N)cc1 | inconclusive: -10.3%

Next results follow.

Row | SMILES | activity change, negative = inhibition
70 | CC(C)Sc1nc2ccc(N3C(=O)C4CCCCC4C3=O)cc2s1 (configuration not stated) | inconclusive: -2.22%
71 | COc1cc(OC)cc(-c2cc(N3C(=O)Nc4ccccc4N3O)n[nH]2)c1 | inconclusive: -28.4%
72 | NC(=O)c1sc2nc3c(c(-c4cccs4)c2c1N)CCCCC3 | inconclusive: -44.9%
73 | C=CCn1c(SCC(=O)N2CCc3ccccc3C2)nc2sc(C)c(C)c2c1=O | inconclusive: -36.3%
74 | COc1cc(C(=O)N2CCSCC2)ccc1OC1CCN(C(C)=O)CC1 | inactive: -1.88%
75 | O=C(c1nnsc1S(=O)(=O)c1ccc(Cl)cc1)N1CCOCC1 | inconclusive: -58.6%
76 | COc1cc(/C=N/N=C2/C(=O)Nc3ccccc32)cc(OC)c1O | inactive: -6.39%
77 | CC(C)N1CCN(Cc2ccc3nsnc3c2)CC1CCO (configuration not stated) | inconclusive: -5.38%
78 | Cc1c(Cl)cccc1NC(=O)Nc1cnccn1 | inactive: -29.6%
79 | CCCCn1c(C(C)NC(=O)CC)nc2ccccc21 (configuration not stated) | inconclusive: 3.38%
80 | CCOC(=O)c1c(C)[nH]c(C(=O)OCC(=O)Nc2sccc2C(N)=O)c1C | inconclusive: -27.9%
81 | CCCC(=O)Nc1cccc(NC(=O)c2cccc([N+](=O)[O-])c2C)c1 | inconclusive: -25.2%
82 | Cc1ccc(C(=O)CSc2cnc3ccccc3n2)cc1C | inactive: -15.7%
83 | COCCNC(=O)C(OC(=O)c1cccs1)c1ccccc1 (configuration not stated) | inactive: 2.58%
84 | COCCn1c(C)c(C)c2c(NCCc3ccccc3)ncnc21 | inconclusive: -12.7%
85 | COc1ccc(N(Cc2cc3cc(OC)ccc3[nH]c2=O)S(=O)(=O)c2ccc(NC(C)=O)cc2)cc1 | inconclusive: -53.3%
86 | Cc1ccc(C)n1NC(=O)c1ccccc1O | inconclusive: -23.6%
87 | Cn1ccnc1C1CCCCN1C(=O)c1cc(COc2ccc(F)cc2Cl)on1 (configuration not stated) | inconclusive: -6.6%
88 | Cc1cc(Cl)ccc1OCCCC(=O)N1CCOCC1 | inactive: 4.58%
89 | O=C(CCl)Nc1cc(SCC(O)CO)cc([N+](=O)[O-])c1 (configuration not stated) | inconclusive: -53.4%
90 | COc1ccc(-c2oc3ccccc3c2C(=O)Oc2ccccc2)cc1 | inactive: 0.138%
91 | CC(=O)OCC(=O)NCC(=O)c1c[nH]c2ccccc12 | inconclusive: -16.7%
92 | CC(/C=N/NC(=O)Cn1cnc2ccccc21)=C\c1ccccc1 | inconclusive: -33.5%
